Reference: PMC9200640
Results are given in words; binding and its absence hold for the method and conditions named. Some results given as binding are weak or reduced against the parent protein; the word gives no strength.

Amino acid sequences for entries named in this document (tags omitted). Residues count along the entry.
UniProt Q9H2K0, residues 32-278: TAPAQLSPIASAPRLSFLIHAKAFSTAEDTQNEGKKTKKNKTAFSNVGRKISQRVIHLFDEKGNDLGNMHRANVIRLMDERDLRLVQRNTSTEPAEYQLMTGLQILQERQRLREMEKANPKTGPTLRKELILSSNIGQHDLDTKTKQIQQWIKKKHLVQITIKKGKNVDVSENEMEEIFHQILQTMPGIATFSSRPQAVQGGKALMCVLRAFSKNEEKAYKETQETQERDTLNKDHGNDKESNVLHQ

Target: RBFA (human mitochondrial ribosome-binding factor A) (human (endogenous in HEK293T)) (UniProt Q8N0V3)
Test: cryo-EM structure; pre-SSU-4 (2.9 Å), native SSU assembly intermediate from mitochondria of MRM3-knockout HEK293T cells, sucrose gradient fractions

binding: binds
Substance: mtIF3 (mitochondrial initiation factor 3) (from UniProt Q9H2K0 32-278)
